Measured values reported in publication PMC8321701.
No constants are given. Whether binding was seen depends on the method and setting. For some of these results: A result given as binding can be weak or reduced; the word gives no strength. For some of these results: Binding seen in cells or lysates may run through a third protein.

Sequences of proteins named here, by UniProt entry; tags and fusion partners are left off. A change or cut given only in a name is not applied to a line headed by its entry.
UniProt P62745: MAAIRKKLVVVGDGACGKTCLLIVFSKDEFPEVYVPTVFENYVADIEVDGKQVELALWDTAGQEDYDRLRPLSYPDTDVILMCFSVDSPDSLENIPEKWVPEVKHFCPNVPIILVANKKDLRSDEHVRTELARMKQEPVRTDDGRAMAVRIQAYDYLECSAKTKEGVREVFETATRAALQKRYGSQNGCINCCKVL

How the values were obtained:
[1] = target: purified His-RhoB (Q63L) (human) (UniProt P62745); assay: pull-down; lysates of SKBR-3 cells expressing Myc-CNKSR1 (WT, ΔPH or W493A) in IP buffer (25 mM Tris-HCl pH 7.4, 150 mM NaCl, 1% NP-40, 1 mM EDTA, 5% glycerol) incubated with purified His-tagged RhoB (Q63L) 2 h at 4°C, then TALON resin 1 h at 4°C; Western blot; only the target purified
[2] = target: T1, biotinylated CNKSR1 (wild-type) (human) (UniProt Q969H4); assay: AlphaScreen or HTRF; high-throughput screen: biotinylated CNKSR1 (WT, W493A) or RhoB (Q63L) bait with 171 FLAG-GST-tagged human phosphatases (154 full length, 17 catalytic domains); threshold 10 times the signal for CNKSR1-biotin/FLAG-DHFR; wheat cell-free translation products
T1 sequence (chain, biotinylated): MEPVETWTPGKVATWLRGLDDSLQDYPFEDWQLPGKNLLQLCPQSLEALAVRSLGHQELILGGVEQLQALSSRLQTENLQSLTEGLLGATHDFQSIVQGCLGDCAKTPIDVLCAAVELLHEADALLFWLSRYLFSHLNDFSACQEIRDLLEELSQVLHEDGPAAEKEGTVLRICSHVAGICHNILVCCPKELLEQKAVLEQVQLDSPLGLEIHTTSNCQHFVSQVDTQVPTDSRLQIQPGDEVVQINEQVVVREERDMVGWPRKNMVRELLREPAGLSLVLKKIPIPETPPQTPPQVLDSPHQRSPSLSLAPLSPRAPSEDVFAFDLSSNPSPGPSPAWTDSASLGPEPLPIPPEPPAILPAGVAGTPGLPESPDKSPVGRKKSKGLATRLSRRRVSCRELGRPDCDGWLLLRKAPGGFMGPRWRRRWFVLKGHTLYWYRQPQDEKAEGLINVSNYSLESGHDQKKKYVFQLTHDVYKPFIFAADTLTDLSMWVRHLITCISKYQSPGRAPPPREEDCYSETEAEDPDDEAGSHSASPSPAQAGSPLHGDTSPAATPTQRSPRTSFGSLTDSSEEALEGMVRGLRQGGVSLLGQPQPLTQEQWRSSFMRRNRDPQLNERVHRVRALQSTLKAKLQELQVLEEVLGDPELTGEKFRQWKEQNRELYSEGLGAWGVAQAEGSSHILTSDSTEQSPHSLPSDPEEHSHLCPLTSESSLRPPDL

| binding [1] | binding [2] | Substance |
| --- | --- | --- |
| no binding | – | Myc-CNKSR1 (ΔPH) (from UniProt Q969H4) |
| – | binds | FLAG-GST-tagged PTPRR of the human phosphatase array |
| – | binds | FLAG-GST-tagged PTPRJ of the human phosphatase array |
| – | binds | FLAG-GST-tagged PTPRM of the human phosphatase array |
